# The supplement of paper PMC9135407
# “And” between values parts separate entries of the source, which are not always exact repeats. Equal entries are not always repeated. Structures can show the parent of a compound that is named as a salt. ± gives the standard deviation of the averaged measurements. The list shows a part of the results. Baselines shift from plate to plate; read single values as rough.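 Assay uses culture-activated primary human stellate myofibroblasts; lipid droplet recovery indicates inactivation. Measured: proportion of Hoechst-counted cells over a plate-specific Bodipy cutoff, duplicate wells, DMSO and nortriptyline as per-plate negative and positive controls. A hit scores, control-normalized, above the plate's top-tenth-percentile nortriptyline wells or ranks among its three best wells. Final well concentrations not reported.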
# Test system: primary human hepatic stellate cells (donor 1)
# Experiment: percent Bodipy-positive cells; higher = more lipid droplet accumulation
# Details: 48 h
# [1] = library stock concentration: 10 mM
# [2] = library stock concentration: 3.33 mM
# [3] = library stock concentration: 80 uM
# [4] = library stock concentration: 400 uM
# [5] = library stock concentration: 2 mM
# [6] = library stock concentration: 1 mM
structure (smiles),measurement,setting,value
CCOC(=O)c1ccc(OC(=O)CCCCCNC(=N)N)cc1 [Gabexate mesilate],percent Bodipy-positive cells,,10.4 ± 3.2%
CCOC(=O)c1ccc(OC(=O)CCCCCNC(=N)N)cc1 [Gabexate mesylate],percent Bodipy-positive cells,[1],8.51 ± 2.6%
CCOC(=O)c1ccc(OC(=O)CCCCCNC(=N)N)cc1,percent Bodipy-positive cells,[1],10.5 ± 3.5%
OC[C@H]1O[C@H]([S-])[C@H](O)[C@@H](O)[C@@H]1O.[Au+] [Aurothioglucose],percent Bodipy-positive cells,library stock concentration: 5.1 mM,35.6 ± 10%
same,percent Bodipy-positive cells,[1],100%
CC(C)(C)Cn1c(N)nc2ccc(-c3[nH]c(C(C)(C)C)nc3-c3ccc(F)cc3)nc21,percent Bodipy-positive cells,[2],18.4 ± 9.7%
same,percent Bodipy-positive cells,[1],57 ± 2.3%
CC(C)(C)Cn1c(N)nc2ccc(-c3[nH]c(C(C)(C)C)nc3-c3ccc(F)cc3)nc21 [Ralimetinib],percent Bodipy-positive cells,[3],12.7 ± 0.3%
same,percent Bodipy-positive cells,[4],17.4 ± 2%
same,percent Bodipy-positive cells,[5],17 ± 2.2%
same,percent Bodipy-positive cells,[1],69.6 ± 13%
CCCN[C@H]1CCc2nc(N)sc2C1,percent Bodipy-positive cells,[1],10.6% and 20.2%
CCCN[C@H]1CCc2nc(N)sc2C1 [Pramipexole],percent Bodipy-positive cells,[2],22 ± 5.3%
same,percent Bodipy-positive cells,library stock concentration: 9.5 mM,11.4 ± 0.12%
same,percent Bodipy-positive cells,[1],10.4% and 8.78%
O=C(NC1CCN(CCCCC2(C(=O)NCC(F)(F)F)c3ccccc3-c3ccccc32)CC1)c1ccccc1-c1ccc(C(F)(F)F)cc1 [Lomitapide],percent Bodipy-positive cells,[1],98.8 ± 1.8%
CCC(=O)N1CCN(C(=O)c2ccccc2)CC1,percent Bodipy-positive cells,[1],26.4 ± 11%
CC(=O)c1ccc(S(=O)(=O)NC(=O)NC2CCCCC2)cc1 [Acetohexamide],percent Bodipy-positive cells,,21.9 ± 1.3%
same,percent Bodipy-positive cells,library stock concentration: 6.2 mM,17 ± 14%
same,percent Bodipy-positive cells,[1],31.8 ± 3.2%
Cc1c(-c2ccnn2C)cc(C(=O)NCc2ccc(S(C)(=O)=O)cn2)c(=O)n1-c1cccc(C(F)(F)F)c1 [Alvelestat (AZD9668)],percent Bodipy-positive cells,[2],17.5 ± 6%
same,percent Bodipy-positive cells,[1],18.6 ± 2.7%
CCCCC[C@H](O)/C=C/[C@@H]1[C@@H](C/C=C\CCCC(=O)O)[C@@H](O)C[C@H]1O [Dinoprost trometamol],percent Bodipy-positive cells,,21 ± 6%
CCCCC[C@H](O)/C=C/[C@@H]1[C@@H](C/C=C\CCCC(=O)O)[C@@H](O)C[C@H]1O [Prostaglandin F2.alpha. (tromethamine salt)],percent Bodipy-positive cells,[6],10.1 ± 0.6%
CCCCC[C@H](O)/C=C/[C@@H]1[C@@H](C/C=C\CCCC(=O)O)[C@@H](O)C[C@H]1O [Prostaglandin F2a],percent Bodipy-positive cells,[6],10.9 ± 9.6%
CCCCC[C@H](O)/C=C/[C@@H]1[C@@H](C/C=C\CCCC(=O)O)[C@@H](O)C[C@H]1O [Prostaglandin F2.alpha.],percent Bodipy-positive cells,[6],13.1 ± 0.15%
CCSC(=N)N [EIT hydrobromide],percent Bodipy-positive cells,[1],6.23 ± 3.6%
CCSC(=N)N [S-Ethylisothiourea hydrobromide],percent Bodipy-positive cells,[1],68.7 ± 17%
CCSC(=N)N [S-ethyl Isothiourea (hydrobromide)],percent Bodipy-positive cells,[6],7.33 ± 0.89%
O=C(O)CCC/C=C\C[C@@H]1[C@@H](/C=C/[C@@H](O)C2CCCCC2)[C@H](O)C[C@@H]1O [15-cyclohexyl pentanor Prostaglandin F2.alpha.],percent Bodipy-positive cells,[6],13.8 ± 1.2%
"CCCCCCCC/C=C/CCCCCCCC(=O)Nc1c(C(C)C)cccc1C(C)C [Oleic Acid-2,6-diisopropylanilide]",percent Bodipy-positive cells,[6],14.7 ± 5.4%
CC(=O)Nc1cccc2c1c(Sc1ccc(Cl)cc1)c(C)n2CC(=O)O,percent Bodipy-positive cells,[2],31.8 ± 2.5%
same,percent Bodipy-positive cells,[1],22.4 ± 1.2%
CNc1ncnc2c1ncn2[C@H]1C[C@H](OP(=O)(O)O)[C@@H](COP(=O)(O)O)O1,percent Bodipy-positive cells,[1],23 ± 6.7%
CC(COc1ccccc1)N(CCCl)Cc1ccccc1 (stereo not given) [Phenoxybenzamine hydrochloride],percent Bodipy-positive cells,,15.9 ± 2.4%
same,percent Bodipy-positive cells,library stock concentration: 5.9 mM,17.5 ± 8.5%
CC(COc1ccccc1)N(CCCl)Cc1ccccc1 (stereo not given) [Dibenzyline],percent Bodipy-positive cells,[1],62.3 ± 12%
CC(COc1ccccc1)N(CCCl)Cc1ccccc1 (stereo not given) [Phenoxybenzamine HCl],percent Bodipy-positive cells,[2],11.2 ± 2.2%
same,percent Bodipy-positive cells,library stock concentration: 6.6 mM,12.7 ± 2.4%
same,percent Bodipy-positive cells,[1],26.7 ± 2.1%
CC(COc1ccccc1)N(CCCl)Cc1ccccc1 (stereo not given) [Phenoxybenzamine],percent Bodipy-positive cells,library stock concentration: 16.5 mM,20 ± 7.8%
Nc1ncn([C@@H]2O[C@H](CO)[C@@H](O)[C@H]2O)c(=O)n1 [5-azacytidine],percent Bodipy-positive cells,[1],45 ± 7.8%
Nc1ncn([C@@H]2O[C@H](CO)[C@@H](O)[C@H]2O)c(=O)n1 [5-Azacytidine],percent Bodipy-positive cells,[1],45 ± 0.76%
Nc1ncn([C@@H]2O[C@H](CO)[C@@H](O)[C@H]2O)c(=O)n1 [Azacitidine],percent Bodipy-positive cells,[3],46.6 ± 7.6%
same,percent Bodipy-positive cells,[4],48.7 ± 4%
same,percent Bodipy-positive cells,[5],44.7 ± 5.5%
same,percent Bodipy-positive cells,[2],12.1 ± 1.8%
CCCNC(C)C(=O)Nc1ccccc1C (stereo not given) [Prilocaine],percent Bodipy-positive cells,[2],4.18 ± 1.5%
same,percent Bodipy-positive cells,[1],11.1 ± 2.8%
CCCNC(C)C(=O)Nc1ccccc1C (stereo not given) [Prilocaine hydrochloride],percent Bodipy-positive cells,,35.2 ± 12%
same,percent Bodipy-positive cells,library stock concentration: 7.8 mM,12.2 ± 2.5%
COc1ccc(CN(CCN(C)C)c2ccccn2)cc1 [Pyrilamine maleate],percent Bodipy-positive cells,,45.7 ± 8.7%
same,percent Bodipy-positive cells,library stock concentration: 5 mM,33.2 ± 8%
COc1ccc(CN(CCN(C)C)c2ccccn2)cc1 [Mepyramine maleate],percent Bodipy-positive cells,library stock concentration: 7 mM,16 ± 4.2%
same,percent Bodipy-positive cells,[1],25.8 ± 3%

# An excerpt of the results above, as a working copy:
structure (smiles),measurement,setting,value
Nc1ncn([C@@H]2O[C@H](CO)[C@@H](O)[C@H]2O)c(=O)n1 [Azacitidine],percent Bodipy-positive cells,[3],46.6 ± 7.6%
same,percent Bodipy-positive cells,[4],48.7 ± 4%
same,percent Bodipy-positive cells,[5],44.7 ± 5.5%
same,percent Bodipy-positive cells,[2],12.1 ± 1.8%
CCCNC(C)C(=O)Nc1ccccc1C (stereo not given) [Prilocaine],percent Bodipy-positive cells,[2],4.18 ± 1.5%
same,percent Bodipy-positive cells,[1],11.1 ± 2.8%
CCCNC(C)C(=O)Nc1ccccc1C (stereo not given) [Prilocaine hydrochloride],percent Bodipy-positive cells,,35.2 ± 12%
same,percent Bodipy-positive cells,library stock concentration: 7.8 mM,12.2 ± 2.5%
COc1ccc(CN(CCN(C)C)c2ccccn2)cc1 [Pyrilamine maleate],percent Bodipy-positive cells,,45.7 ± 8.7%
same,percent Bodipy-positive cells,library stock concentration: 5 mM,33.2 ± 8%
COc1ccc(CN(CCN(C)C)c2ccccn2)cc1 [Mepyramine maleate],percent Bodipy-positive cells,library stock concentration: 7 mM,16 ± 4.2%
same,percent Bodipy-positive cells,[1],25.8 ± 3%
